According to patent CN115197321A:
Results are given in words; binding and its absence hold for the method and conditions named. Some binding calls cover weakened binding; strength is not graded here.

Sequences of proteins named here, by UniProt entry; tags and fusion partners are left off. A change or cut given only in a name is not applied to a line headed by its entry. A line that says so, or that is headed by a name, gives the form on record, which may keep a tag or linker. Residues count along the entry.
UniProt P01589: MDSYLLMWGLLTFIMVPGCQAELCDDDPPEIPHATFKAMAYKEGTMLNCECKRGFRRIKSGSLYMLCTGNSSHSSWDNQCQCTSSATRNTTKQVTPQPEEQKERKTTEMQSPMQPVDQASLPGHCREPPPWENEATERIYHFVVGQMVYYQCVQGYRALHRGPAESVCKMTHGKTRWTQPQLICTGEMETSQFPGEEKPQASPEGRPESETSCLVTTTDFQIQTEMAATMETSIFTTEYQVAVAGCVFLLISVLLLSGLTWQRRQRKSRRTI
人CD25 (on CD25-positive cells: SU-DHL-1, U937, NK-92, human PBMC): residues 22-272 of P01589
CD25-hIgG1Fc(人CD25胞外域的C端融合人IgG1的Fc段): residues 22-240 of P01589
CD25-His(人CD25胞外域的C端融合6×His标签) (P01589, form named): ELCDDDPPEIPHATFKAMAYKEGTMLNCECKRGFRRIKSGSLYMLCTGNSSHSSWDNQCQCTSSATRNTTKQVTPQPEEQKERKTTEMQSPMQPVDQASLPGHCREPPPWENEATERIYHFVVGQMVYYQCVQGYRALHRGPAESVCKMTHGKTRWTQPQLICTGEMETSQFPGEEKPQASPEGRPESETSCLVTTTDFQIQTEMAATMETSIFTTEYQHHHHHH

B1: 杂交瘤抗体B7 (antibody, IgG1, V domains shown)
VH: EVQLQESGPGLVKPSQSLSLTCTVTGYSITSDYAWNWIRQFPGNKLEWMGYINYSGSTSYNPSLKSRISITRDTSKNQFFLQLNSVTTEDTATYYCARKGGFFDVWGAGTTVTVSS
VL: DIQMTQTTSSLSASLGDRVTISCSASQGISNYLNWYQQKPDGTVKLLIYYTSSLHSGVPSRFSGSGSGTDYSLTISNLEPEDIATYYCLQYSKLPWTFGGGTKLEIK
B2: 杂交瘤抗体F10 (antibody, IgG2a, V domains shown)
VH: QVQLKQSGPGLVQPSQSLSITCTVSGFSLTSYGVHWVRQSPGKGLEWLGVIWRGGSTDYNAAFMSRLSITKDNSKSQVFFKMNSLQAGDTAVYYCAKNERFYGFDYWGQGTTLTVSS
VL: DIVMTQAAFSNPVTLGTSASISCRSSKSLLHSNGITYLYWYLQKPGQSPQLLIYQMSNLASGVPDRFSSSGSGTDFTLRISRVEAEDVGVYYCAQNLELPTFGSGTKLEIK

Experiments:
[1] = molecular target: CD25-hIgG1Fc(人CD25胞外域的C端融合人IgG1的Fc段) (human) (UniProt P01589); assay: ELISA, coated CD25-hIgG1Fc (positive control of the lysate panel)
[2] = molecular target: 人CD25 (on CD25-positive cells: SU-DHL-1, U937, NK-92, human PBMC) (human) (UniProt P01589); assay: flow cytometry on SU-DHL-1 and U937 cells
[3] = molecular target: CD25-His(人CD25胞外域的C端融合6×His标签) (human) (UniProt P01589); assay: ELISA, coated human CD25-His 50 ng/well, hybridoma supernatant

| Binder | binding [1] | binding [2] | binding [3] |
| --- | --- | --- | --- |
| B1 | binds | binds | binds |
| B2 | binds | binds |  |
